Laboratory results taken from the supplement of paper PMC11659162.
Where “and” joins values, the source holds several entries; their conditions need not be identical. Equal entries are not always repeated. The list shows a part of the results. This is a noisy data set.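 The cells are a human neuroglioma line carrying a green fluorescent autophagy reporter.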

Tested on: H4 GFP-LC3
Assay: cell viability (scaled to control) (fraction of control); higher = more viable cells
Details: 5 µM; 6 h

SMILES | cell viability
C[C@H](Cc1ccc(OCC(=O)O)cc1)NC[C@H](O)c1cccc(Cl)c1 | 0.812
COc1ccc(C(=O)N2CCCC2=O)cc1 | 1.09
Oc1ccc2c3c1O[C@H]1c4oc5ccccc5c4C[C@@]4(O)[C@@H](C2)N(CC2CC2)CC[C@]314 | 1.08
CO[C@]12C[C@@H](COC(=O)c3cncc(Br)c3)CN(C)[C@@H]1Cc1cn(C)c3cccc2c13 | 0.544
CC(N)Cc1cnc[nH]1 (stereo not drawn) | 1.02 and 1.01
NC1CCc2cc(O)c(O)cc2C1 (stereo not drawn) | 0.748
C=CCN1CC[C@@]2(C)c3cc(O)ccc3C[C@@H]1C2C (single isomer, unassigned; (+)) | 1.01
C[C@@H]1O[C@H](C[N+](C)(C)C)C[C@H]1O | 1.04
O=C1CC[C@@]2(O)[C@H]3Cc4ccc(O)c5c4[C@@]2(CCN3CC2CC2)[C@H]1O5 | 1.1
c1ccc2c(N3CCNCC3)cccc2c1 | 0.842
c1ccc(C2CNCc3ccccc32)cc1 (stereo not drawn) | 0.794
CN1CCN(c2ccc3ccccc3n2)CC1 | 0.725
CC(C)NCC(O)c1ccc(N)c(C#N)c1 (stereo not drawn) | 0.955
CC[C@@H](CO)NC(=O)[C@@H]1C=C2c3cccc4[nH]cc(c34)C[C@H]2N(C)C1 | 0.698
CC(C)[C@@]1(NC(=O)[C@@H]2C[C@@H]3c4cccc5[nH]cc(c45)C[C@H]3N(C)C2)O[C@@]2(O)[C@@H]3CCCN3C(=O)[C@H](Cc3ccccc3)N2C1=O | 0.738
CCCN1C[C@H](C)N([C@H](c2ccc(C(=O)N(CC)CC)cc2)c2cccc(OC)c2)C[C@H]1C | 1.2
CC(N)Cc1c[nH]c2ccc(OCc3cccs3)cc12 (stereo not drawn) | 0.738
N=C(N)NCCCCCCCCCCNC(=N)N | 1.13
CO[C@H]1CC=C2CCN3CCC4=C(CC(=O)OC4)[C@]23C1 | 0.704

Same assay, conditions: 5 µM; 24 h

SMILES | cell viability
C=CCN1C[C@H](C)N([C@H](c2ccc(C(=O)N(CC)CC)cc2)c2cccc(OC)c2)C[C@H]1C | 1.11
Fc1ccc(C(OCCN2CCN(C/C=C/c3ccccc3)CC2)c2ccc(F)cc2)cc1 | 1.1
Oc1ccc2c3c1O[C@H]1[C@@H](O)CC[C@@]4(O)[C@@H](C2)N(CC2CCC2)CC[C@]314 | 0.982
NC(=O)[C@@H]1CCCN1C(=O)[C@H](Cc1ccccc1)NC(=O)[C@@H]1CCCN1C(=O)[C@@H](N)Cc1ccc(O)cc1 | 1.14
CC[C@@H](CO)NC(=O)[C@@H]1C=C2c3cccc4c3c(cn4C)C[C@H]2N(C)C1 | 1
O=c1[nH]c2ccccc2n1CCCN1CCC(n2c(=O)[nH]c3cc(Cl)ccc32)CC1 | 1.13
NCCc1c[nH]c2ccc(O)cc12 | 0.895 and 0.996
O=C(CCCN1CCC2(CC1)C(=O)N(Cc1cccc(F)c1)CN2c1ccccc1)c1ccc(F)cc1 | 0.822
O=C(O)Cc1cccnc1C(=O)O | 1.07
S=C(NC1CCCCC1)N1CCC(c2cnc[nH]2)CC1 | 1.07
C=CC[N+]1(C)CC[C@]23c4c5ccc(O)c4O[C@H]2C(=O)CC[C@@]3(O)[C@H]1C5 (stereo partly drawn) | 1.24
c1ccc(CCCCN2CCC(c3ccccc3)CC2)cc1 | 1.06
NCCCC[C@H](NC(=O)[C@H](Cc1ccccc1)NC(=O)[C@@H](CCCN=C(N)N)NC(=O)[C@@H](N)Cc1ccc(O)cc1)C(N)=O | 1.1
C[N+](C)(C)CCCCCCCCCC[N+](C)(C)C | 0.977
CC(NC(=O)C(N)Cc1ccc(O)cc1)C(=O)NC(Cc1ccccc1)C(=O)NC(Cc1ccccc1)C(N)=O (stereo not drawn) | 1.22
C[C@H](Cc1ccc(OCC(=O)O)cc1)NC[C@H](O)c1cccc(Cl)c1 | 0.812
COc1ccc(C(=O)N2CCCC2=O)cc1 | 1.23

SMILES | cell viability
Oc1ccc2c3c1O[C@H]1c4oc5ccccc5c4C[C@@]4(O)[C@@H](C2)N(CC2CC2)CC[C@]314 | 0.864
CO[C@]12C[C@@H](COC(=O)c3cncc(Br)c3)CN(C)[C@@H]1Cc1cn(C)c3cccc2c13 | 0.829
CC(N)Cc1cnc[nH]1 (stereo not drawn) | 1.13 and 1.02
NC1CCc2cc(O)c(O)cc2C1 (stereo not drawn) | 1.38
C=CCN1CC[C@@]2(C)c3cc(O)ccc3C[C@@H]1C2C (single isomer, unassigned; (+)) | 1.04
C[C@@H]1O[C@H](C[N+](C)(C)C)C[C@H]1O | 1.36
O=C1CC[C@@]2(O)[C@H]3Cc4ccc(O)c5c4[C@@]2(CCN3CC2CC2)[C@H]1O5 | 0.918
c1ccc2c(N3CCNCC3)cccc2c1 | 1.16
c1ccc(C2CNCc3ccccc32)cc1 (stereo not drawn) | 1.25
CN1CCN(c2ccc3ccccc3n2)CC1 | 1.05
CC(C)NCC(O)c1ccc(N)c(C#N)c1 (stereo not drawn) | 0.795
CC[C@@H](CO)NC(=O)[C@@H]1C=C2c3cccc4[nH]cc(c34)C[C@H]2N(C)C1 | 0.927
CC(C)[C@@]1(NC(=O)[C@@H]2C[C@@H]3c4cccc5[nH]cc(c45)C[C@H]3N(C)C2)O[C@@]2(O)[C@@H]3CCCN3C(=O)[C@H](Cc3ccccc3)N2C1=O | 1.03
CCCN1C[C@H](C)N([C@H](c2ccc(C(=O)N(CC)CC)cc2)c2cccc(OC)c2)C[C@H]1C | 0.739
CC(N)Cc1c[nH]c2ccc(OCc3cccs3)cc12 (stereo not drawn) | 0.669
N=C(N)NCCCCCCCCCCNC(=N)N | 1.16
CO[C@H]1CC=C2CCN3CCC4=C(CC(=O)OC4)[C@]23C1 | 0.881
